Values of other authors in patent US8974823B2, “Solid compositions of low-solubility drugs and poloxamers” (Bend Research, Inc., priority 2003, dated 2015).
For at least one compound, name, drawing or mass did not settle the structure.

Conditions: drugs of prior-art compositions, background section; cited from earlier work

Compound: CC(C)OC(=O)C(C)(C)Oc1ccc(C(=O)c2ccc(Cl)cc2)cc1 [fenofibrate]
- glass transition temperature (Tg): about −19 °C
